PubChem BioAssay AID1259405 | NCATS | 2018

Purpose: 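Silenced genes that increase secreted GFP made by CHO cells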 (primary screen)
Cell system: Chinese hamster CHO-K1 ovary cells with stable secreted eGFP expression
Reagents: single siRNA against mouse genes, 0.8 pmol siRNA per well (2 µl of 400 nM stock)
Time to read-out: 3 days
Read-out: 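Percent of the per-plate non-targeting control median for intracellular GFP per well by laser scanning cytometry and for cell viability by ATP luminescence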
Scale: GFP, % of control: higher = more GFP per well, higher productivity; viability (ATP), % of control: higher = more viable cells (more ATP)
Hit rule: 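a knock-down is called active if GFP reaches 120% or more of non-targeting control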
The whole screen tested about 50,000 reagents; shown is a part drawn at random. Of all reagents, about 4,000 (8%) are marked active. 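Mouse siRNA library applied to hamster cells; one well for each siRNA.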 Unmarked entries are inactive. No sequences are given here.

no.	gene symbol	PubChem SID	GFP, % of control	viability (ATP), % of control
1	Golt1a	SID363540801	110	111
2	Golt1a	SID363543252	92.3	95.4
3	Golt1a	SID363552745	97.4	73.6
4	Mfge8	SID363573525	101	101
5	Mfge8	SID363588764	114	88.3
6	Rtca	SID363572915	68.5	80.9
7	Rtca	SID363577491	88.1	77
8	Rtca	SID363581011	60.1	69.1
9	Ybey	SID363542919	28.8	41.5
10	Ybey	SID363546436	65.9	73
11	Ybey	SID363548192	73.9	83.1
12	Usp24	SID363574489	115	64.4
13	Usp24	SID363575545	43.4	77.2
14	Usp24	SID363580121	58.6	54.1
15	Bend6	SID363546505	96.6	94.2
16	Bend6	SID363548261	53.9	42.6
17	Bend6	SID363560439	59.5	60.7
18	Calr3	SID363582621	87.5	124
19	Calr3	SID363584381	78.4	98.4
20	Cnot10	SID363550236	75.8	88
21	Cnot10	SID363564745	84.8	77
22	Cnot10	SID363588290	83.1	115
23	Pdzd11	SID363543996	73	65.4
24	Pdzd11	SID363551732	23.8	43.3
25	Pdzd11	SID363559337	92.1	103
26	Hc	SID363553801	42	41.6
27	Hc	SID363561758	65.7	85.4
28	Hc	SID363565496	85.7	99.6
29	Gmfb	SID363541385	65.7	61.5
30	Gmfb	SID363556012	12.1	15.4
31	Gmfb	SID363566301	71.7	62.7
32	Chrna2	SID363574459	57.7	62.7
33	Chrna2	SID363575515	57.7	54.8
34	Chrna2	SID363580091	66.8	63.6
35	Fank1	SID363539956	72.7	90.3
36	Fank1	SID363561257	50.9	26.2
37	Fank1	SID363564293	103	83.4
38	Cacng7	SID363574470	37.2	58.4
39	Cacng7	SID363575526	76.8	84.6
40	Cacng7	SID363580102	68.2	71.8
41	Acr	SID363571234	96	77.9
42	Acr	SID363571586	88.6	73
43	Acr	SID363571938	122 (active)	75.5
44	Csnk1d	SID363547398	94.4	68
45	Csnk1d	SID363558167	88.6	72.5
46	Csnk1d	SID363559925	67.9	72.2
47	Chchd4	SID363550069	104	90
48	Chchd4	SID363564578	70.3	66.2
49	Chchd4	SID363588123	110	82.2
50	Kcnv1	SID363574641	129 (active)	92
51	Kcnv1	SID363575697	101	65
52	Kcnv1	SID363580273	76.7	77.6
53	Plagl2	SID363573558	65.7	79.6
54	Plagl2	SID363581302	106	98.3
55	Plagl2	SID363583766	64.2	73.7
56	Tcea2	SID363573626	46	48.4
57	Tcea2	SID363581370	104	72
58	Tcea2	SID363583834	74.1	75.2

An excerpt of the results above:
no.	gene symbol	PubChem SID	GFP, % of control	viability (ATP), % of control
37	Fank1	SID363564293	103	83.4
38	Cacng7	SID363574470	37.2	58.4
39	Cacng7	SID363575526	76.8	84.6
40	Cacng7	SID363580102	68.2	71.8
41	Acr	SID363571234	96	77.9
42	Acr	SID363571586	88.6	73
43	Acr	SID363571938	122 (active)	75.5
